The target in assay [1] is T1, hCD123 (recombinant, construct not stated) (human) (UniProt P26951).
T1 sequence (looked up): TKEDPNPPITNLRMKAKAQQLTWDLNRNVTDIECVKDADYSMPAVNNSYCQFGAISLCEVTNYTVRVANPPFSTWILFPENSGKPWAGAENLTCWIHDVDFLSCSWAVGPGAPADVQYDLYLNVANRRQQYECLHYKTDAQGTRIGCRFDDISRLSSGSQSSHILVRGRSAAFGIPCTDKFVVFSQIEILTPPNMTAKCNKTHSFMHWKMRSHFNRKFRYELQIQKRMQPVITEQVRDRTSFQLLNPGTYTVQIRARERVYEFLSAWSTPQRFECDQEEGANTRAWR
As to the kind of experiment: switchSENSE, hCD33 and hCD123 co-immobilised 2:1; panel headed CD123, y axis kon.

Amino acid sequences for entries named in this document (tags omitted). A change or cut given only in a name is not applied to a line headed by its entry. Residues count along the entry.
UniProt P07766: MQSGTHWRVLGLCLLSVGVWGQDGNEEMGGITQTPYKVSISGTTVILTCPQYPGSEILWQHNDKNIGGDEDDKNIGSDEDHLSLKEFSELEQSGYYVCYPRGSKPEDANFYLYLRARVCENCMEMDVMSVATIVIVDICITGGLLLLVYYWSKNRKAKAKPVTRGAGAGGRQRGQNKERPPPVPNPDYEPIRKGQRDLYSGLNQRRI
UniProt P20138, residues 18-259: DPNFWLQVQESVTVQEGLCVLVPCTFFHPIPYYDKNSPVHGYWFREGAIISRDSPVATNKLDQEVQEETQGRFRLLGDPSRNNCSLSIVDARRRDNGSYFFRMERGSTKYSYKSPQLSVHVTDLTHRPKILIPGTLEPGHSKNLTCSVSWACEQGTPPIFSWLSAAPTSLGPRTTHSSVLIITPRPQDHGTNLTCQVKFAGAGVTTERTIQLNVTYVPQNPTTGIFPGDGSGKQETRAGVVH

Assay [2] has as its target T1, hCD123 (recombinant, construct not stated) (human). Put plainly: switchSENSE, CD33 and CD123 on one chip.
The target is the same in assay [3]. Put plainly: switchSENSE, hCD33 and hCD123 co-immobilised 2:1; panel headed CD123, y axis koff.
For assay [4] the target is unchanged. As to the kind of experiment: switchSENSE, hCD33 and hCD123 co-immobilised 2:1; panel headed CD123, column koff1.
The target is the same in assay [5]. Put plainly: switchSENSE, hCD33 and hCD123 co-immobilised 2:1; panel headed CD123, column kon1.
Assay [6] deals with T2, human CD3 on primary human pan-T cells (human, UniProt P07766 23-207; P09693 23-182; P04234 22-171; P20963 22-164).
T2 construct: whole, on cells; Native complex on T cells isolated from PBMC; also called CD3 on Pan-T cells
As to the kind of experiment: Mirrorball laser scanning cytometry on primary human pan-T cells, anti-penta-His Alexa Fluor 488 detection, 600 µM HSA.

The target in assay [7] is T2, human CD3 on primary human pan-T cells. As to the kind of experiment: Mirrorball cytometry on primary human pan-T cells.
Assay [8] addresses hCD33 (recombinant, construct not stated) (human) (UniProt P20138). Put plainly: switchSENSE, CD33 and CD123 on one chip.
Assay [9] shares this target. As to the kind of experiment: switchSENSE, hCD33 and hCD123 co-immobilised 2:1; panel headed CD33, column koff1.
Assay [10] shares this target. Put plainly: switchSENSE, hCD33 and hCD123 co-immobilised 2:1; panel headed CD33, column kon1.

These are yes or no findings as the source states them, for the method shown. Some results given as binding are weak or reduced against the parent protein; the word gives no strength.

B1: DARPin® protein #21 (designed binder)
chain: DLGKKLLEAARAGQDDEVRILMANGADVNALDWLGHTPLHLAAYEGHLEIVEVLLKNGADVNAIDDNNGFTPLHLAAIDGHLEIVEVLLKNGADVNAQDKFGKTAFDISIDNGNEDLAEILQKAAGSPTPTPTTPTPTPTTPTPTPTGSDLGKKLLEAARAGQDDEVRELLKAGADVNAKDKDGYTPLHLAAREGHLEIVEVLLKAGADVNAKDKDGYTPLHLAAREGHLEIVEVLLKAGADVNAQDKSGKTPADLAADAGHEDIAEVLQKAAGSPTPTPTTPTPTPTTPTPTPTGSDLGQKLLEAAWAGQDDEVRILLAAGADVNAKNSRGWTPLHTAAQTGHLEIFEVLLKAGADVNAKNDKRVTPLHLAAALGHLEIVEVLLKAGADVNARDSWGTTPADLAAKYGHGDIAEVLQKLA
notes: also called αCD123-Ni2C-αCD3
For B1, the binding result in assay [1], in [2] and in assay [3] was “binds” in each case.

B2: DARPin® protein #41 (designed binder)
chain: DLGKKLLEAALEGQLDEVRELLKAGADVNAKDQEGYTPLHLAAALGHLEIVEVLLKAGADVNAKDSIGRTPLHLAAYKGHLEIVEVLLKAGADVNAQDLLGETPADLAAEQGHQDIAEVLQKAAGSPTPTPTTPTPTPTTPTPTPTGSDLGKKLLEAARAGQDDEVRELLKAGADVNAKDKDGYTPLHLAAREGHLEIVEVLLKAGADVNAKDKDGYTPLHLAAREGHLEIVEVLLKAGADVNAQDKSGKTPADLAADAGHEDIAEVLQKAAGSPTPTPTTPTPTPTTPTPTPTGSDLGQKLLEAAWAGQDDEVRELLKAGADVNAKNSRGWTPLHTAAQTGHLEIFEVLLKAGADVNAKDDKGVTPLHLAAALGHLEIVEVLLKAGADVNAQDSWGTTPADLAAKYGHEDIAEVLQKAA
notes: also called αCD123-Ni2C-αCD3
As for B2, the binding result in assay [2], in assay [4] and in assay [5] was “binds” each time.

B3: DARPin® protein #9 (designed binder)
chain: DLGKKLLEAARAGQDDEVRILMANGADVNALDWLGHTPLHLAAYEGHLEIVEVLLKNGADVNAIDDNNGFTPLHLAAIDGHLEIVEVLLKNGADVNAQDKFGKTAFDISIDNGNEDLAEILQKAAGSPTPTPTTPTPTPTTPTPTPTGSDLGDKLLLAATSGQDDEVRILLAAGADVNAKDYDGDTPLHLAADEGHLEIVEVLLKAGADVNAKDYSGSTPLHAAAAYGHLEIVEVLLKAGADVNAQDVFGYTPADLAAYVGHEDIAEVLQKAAGSPTPTPTTPTPTPTTPTPTPTGSDLGQKLLEAAWAGQDDEVRELLKAGADVNAKNSRGWTPLHTAAQTGHLEIFEVLLKAGADVNAKNDKRVTPLHLAAALGHLEIVEVLLKAGADVNARDSWGTTPADLAAKYGHQDIAEVLQKAA
notes: CD123-CD33-CD3 ankyrin repeat protein, no half-life extension; also called DARPin® #9; not shown: N-terminal His-tag
Consider B3, for which, in assay [6], the binding entry is reported as “binds”.

B4: DARPin® protein #10 (designed binder)
chain: DLGKKLLEAARAGQDDEVRILMANGADVNALDWLGHTPLHLAAYEGHLEIVEVLLKNGADVNAIDDNNGFTPLHLAAIDGHLEIVEVLLKNGADVNAQDKFGKTAFDISIDNGNEDLAEILQKAAGSPTPTPTTPTPTPTTPTPTPTGSDLGDKLLLAATSGQDDEVRILLAAGADVNAKDYDGDTPLHLAADEGHLEIVEVLLKAGADVNAKDYSGSTPLHAAAAYGHLEIVEVLLKAGADVNAQDVFGYTPADLAAYVGHEDIAEVLQKAAGSPTPTPTTPTPTPTTPTPTPTGSDLGQKLLEAAWAGQLDEVRILLKAGADVNAKNSRGWTPLHTAAQTGHLEIFEVLLKAGADVNAKTNKRVTPLHLAAALGHLEIVEVLLKAGADVNARDTWGTTPADLAAKYGHRDIAEVLQKAA
notes: CD123-CD33-CD3 ankyrin repeat protein, no half-life extension; also called DARPin® #10; not shown: N-terminal His-tag
As for B4, the binding entry in [6] and in assay [7] was “binds” throughout.

B5: DARPin® protein #40 (designed binder)
chain: DLGKKLLEAARAGQDDEVRELLKAGADVNAKDKDGYTPLHLAAREGHLEIVEVLLKAGADVNAKDKDGYTPLHLAAREGHLEIVEVLLKAGADVNAQDKSGKTPADLAADAGHEDIAEVLQKAAGSPTPTPTTPTPTPTTPTPTPTGSDLGVKLLLAASRGQLDEVRILLKAGADVNAKDIDEGYTPLHIAAYYGHLEIVEVLLKAGADVNAKDRYGKTPLHLAAISGHLEIVEVLLKAGADVNAQDDKGDTPADLAADYGHQDIAEVLQKAAGSPTPTPTTPTPTPTTPTPTPTGSDLGQKLLEAAWAGQDDEVRELLKAGADVNAKNSRGWTPLHTAAQTGHLEIFEVLLKAGADVNAKDDKGVTPLHLAAALGHLEIVEVLLKAGADVNAQDSWGTTPADLAAKYGHEDIAEVLQKAA
notes: also called Ni2C-αCD33-αCD3
For B5, the binding result in assay [8], in [9] and in assay [10] was “binds” throughout.

B6: DARPin® protein #13 (designed binder, not shown: small tags and cut ends)
chain: DLGKKLLEAARAGQDDEVRELLKAGADVNAKDYFSHTPLHLAARNGHLKIVEVLLKAGADVNAKDFAGKTPLHLAAADGHLEIVEVLLKAGADVNAQDIFGKTPADIAADAGHEDIAEVLQKAAGSPTPTPTTPTPTPTTPTPTPTGSDLGKKLLEAARAGQDDEVRILMANGADVNALDWLGHTPLHLAAYEGHLEIVEVLLKNGADVNAIDDNNGFTPLHLAAIDGHLEIVEVLLKNGADVNAQDKFGKTAFDISIDNGNEDLAEILQKAAGSPTPTPTTPTPTPTTPTPTPTGSDLGDKLLLAATSGQDDEVRILLAAGADVNAKDYDGDTPLHLAADEGHLEIVEVLLKAGADVNAKDYSGSTPLHAAAAYGHLEIVEVLLKAGADVNAQDVFGYTPADLAAYVGHEDIAEVLQKAAGSPTPTPTTPTPTPTTPTPTPTGSDLGQKLLEAAWAGQDDEVRELLKAGADVNAKNSRGWTPLHTAAQTGHLEIFEVLLKAGADVNAKNDKRVTPLHLAAALGHLEIVEVLLKAGADVNARDSWGTTPADLAAKYGHQDIAEVLQKAA
For B6, the binding entry in assay [6] and in assay [7] was “binds” in each case.

B7: DARPin® protein #12 (designed binder, not shown: small tags and cut ends)
chain: DLGKKLLEAARAGQDDEVRELLKAGADVNAKDYFSHTPLHLAARNGHLKIVEVLLKAGADVNAKDFAGKTPLHLAAADGHLEIVEVLLKAGADVNAQDIFGKTPADIAADAGHEDIAEVLQKAAGSPTPTPTTPTPTPTTPTPTPTGSDLGKKLLEAARAGQDDEVRILMANGADVNALDWLGHTPLHLAAYEGHLEIVEVLLKNGADVNAIDDNNGFTPLHLAAIDGHLEIVEVLLKNGADVNAQDKFGKTAFDISIDNGNEDLAEILQKAAGSPTPTPTTPTPTPTTPTPTPTGSDLGDKLLLAATSGQDDEVRILLAAGADVNAKDYDGDTPLHLAADEGHLEIVEVLLKAGADVNAKDYSGSTPLHAAAAYGHLEIVEVLLKAGADVNAQDVFGYTPADLAAYVGHEDIAEVLQKAAGSPTPTPTTPTPTPTTPTPTPTGSDLGQKLLEAAWAGQDDEVRELLKAGADVNAKNSRGWTPLHTAAQTGHLEIFEVLLKAGADVNAKDDKGVTPLHLAAALGHLEIVEVLLKAGADVNAQDSWGTTPADLAAKYGHEDIAEVLQKAA
As to B7, the binding entry in [7] was “binds”.

B8: DARPin® protein #14 (designed binder)
chain: DLGKKLLEAARAGQDDEVRELLKAGADVNAKDYFSHTPLHLAARNGHLKIVEVLLKAGADVNAKDFAGKTPLHLAAADGHLEIVEVLLKAGADVNAQDIFGKTPADIAADAGHEDIAEVLQKAAGSPTPTPTTPTPTPTTPTPTPTGSDLGKKLLEAARAGQDDEVRILMANGADVNALDWLGHTPLHLAAYEGHLEIVEVLLKNGADVNAIDDNNGFTPLHLAAIDGHLEIVEVLLKNGADVNAQDKFGKTAFDISIDNGNEDLAEILQKAAGSPTPTPTTPTPTPTTPTPTPTGSDLGDKLLLAATSGQDDEVRILLAAGADVNAKDYDGDTPLHLAADEGHLEIVEVLLKAGADVNAKDYSGSTPLHAAAAYGHLEIVEVLLKAGADVNAQDVFGYTPADLAAYVGHEDIAEVLQKAAGSPTPTPTTPTPTPTTPTPTPTGSDLGQKLLEAAWAGQLDEVRILLKAGADVNAKNSRGWTPLHTAAQTGHLEIFEVLLKAGADVNAKTNKRVTPLHLAAALGHLEIVEVLLKAGADVNARDTWGTTPADLAAKYGHRDIAEVLQKAA
notes: HSA-CD123-CD33-CD3, half-life extended form of #10; not shown: His-tag implied by anti-penta-His detection
Take B8: the binding entry in assay [6] and in assay [7] was “binds” throughout.

B9: DARPin® protein #22 (designed binder)
chain: DLGKKLLEAARAGQDDEVRELLKAGADVNAKDKDGYTPLHLAAREGHLEIVEVLLKAGADVNAKDKDGYTPLHLAAREGHLEIVEVLLKAGADVNAQDKSGKTPADLAADAGHEDIAEVLQKAAGSPTPTPTTPTPTPTTPTPTPTGSDLGDKLLLAATSGQDDEVRILLAAGADVNAKDYDGDTPLHLAADEGHLEIVEVLLKAGADVNAKDYSGSTPLHAAAAYGHLEIVEVLLKAGADVNAQDVFGYTPADLAAYVGHEDIAEVLQKAAGSPTPTPTTPTPTPTTPTPTPTGSDLGQKLLEAAWAGQDDEVRILLAAGADVNAKNSRGWTPLHTAAQTGHLEIFEVLLKAGADVNAKNDKRVTPLHLAAALGHLEIVEVLLKAGADVNARDSWGTTPADLAAKYGHGDIAEVLQKLA
notes: also called Ni2C-αCD33-αCD3
Regarding B9, the binding entry in assay [8], in assay [9] and in assay [10] was “binds” throughout.
